# Patent publication EP0031561B1, “A rectally administered suppository comprising a drug and an adjuvant” (Merck & Co., Inc., priority 1979, dated 1981)
# Experiment: in situ perfusion method of the rectum (perfusate recirculated through the rat rectum; drug remaining in the perfusate)
smiles,measurement,setting,value
"CCN(CC)CC(=O)Nc1c(C)cccc1C [lidocaine, 2-(Diethylamino)-N-(2,6-dimethyl-phenyl)acetamide]",effect of sodium salicylate on the absorption of lidocaine,"Figures 2 and 3, amount absorbed against time and pH, particularly evident below a pH of 7.0",accelerating effect
same,absorption rate in the presence of the salicylate or its acidic form,"below a pH of 6.0, appears to increase at the lower pH values",substantial
same,rate of absorption of the drug by itself,"below a pH of 6.0, no adjuvant",approaches zero
